Assay results reported in article PMC9934748.
No constants are given. Whether binding was seen depends on the method and setting. Binding seen in cells or lysates may run through a third protein. Here binding means that the protein was enriched with, or labelled near, the bait; the list need not be complete.

By UniProt entry, the sequences of proteins in these tests, tags left out. Where a name states a change or a piece, a line headed by the entry shows the natural chain unless it says otherwise.
UniProt A0A509AJF0: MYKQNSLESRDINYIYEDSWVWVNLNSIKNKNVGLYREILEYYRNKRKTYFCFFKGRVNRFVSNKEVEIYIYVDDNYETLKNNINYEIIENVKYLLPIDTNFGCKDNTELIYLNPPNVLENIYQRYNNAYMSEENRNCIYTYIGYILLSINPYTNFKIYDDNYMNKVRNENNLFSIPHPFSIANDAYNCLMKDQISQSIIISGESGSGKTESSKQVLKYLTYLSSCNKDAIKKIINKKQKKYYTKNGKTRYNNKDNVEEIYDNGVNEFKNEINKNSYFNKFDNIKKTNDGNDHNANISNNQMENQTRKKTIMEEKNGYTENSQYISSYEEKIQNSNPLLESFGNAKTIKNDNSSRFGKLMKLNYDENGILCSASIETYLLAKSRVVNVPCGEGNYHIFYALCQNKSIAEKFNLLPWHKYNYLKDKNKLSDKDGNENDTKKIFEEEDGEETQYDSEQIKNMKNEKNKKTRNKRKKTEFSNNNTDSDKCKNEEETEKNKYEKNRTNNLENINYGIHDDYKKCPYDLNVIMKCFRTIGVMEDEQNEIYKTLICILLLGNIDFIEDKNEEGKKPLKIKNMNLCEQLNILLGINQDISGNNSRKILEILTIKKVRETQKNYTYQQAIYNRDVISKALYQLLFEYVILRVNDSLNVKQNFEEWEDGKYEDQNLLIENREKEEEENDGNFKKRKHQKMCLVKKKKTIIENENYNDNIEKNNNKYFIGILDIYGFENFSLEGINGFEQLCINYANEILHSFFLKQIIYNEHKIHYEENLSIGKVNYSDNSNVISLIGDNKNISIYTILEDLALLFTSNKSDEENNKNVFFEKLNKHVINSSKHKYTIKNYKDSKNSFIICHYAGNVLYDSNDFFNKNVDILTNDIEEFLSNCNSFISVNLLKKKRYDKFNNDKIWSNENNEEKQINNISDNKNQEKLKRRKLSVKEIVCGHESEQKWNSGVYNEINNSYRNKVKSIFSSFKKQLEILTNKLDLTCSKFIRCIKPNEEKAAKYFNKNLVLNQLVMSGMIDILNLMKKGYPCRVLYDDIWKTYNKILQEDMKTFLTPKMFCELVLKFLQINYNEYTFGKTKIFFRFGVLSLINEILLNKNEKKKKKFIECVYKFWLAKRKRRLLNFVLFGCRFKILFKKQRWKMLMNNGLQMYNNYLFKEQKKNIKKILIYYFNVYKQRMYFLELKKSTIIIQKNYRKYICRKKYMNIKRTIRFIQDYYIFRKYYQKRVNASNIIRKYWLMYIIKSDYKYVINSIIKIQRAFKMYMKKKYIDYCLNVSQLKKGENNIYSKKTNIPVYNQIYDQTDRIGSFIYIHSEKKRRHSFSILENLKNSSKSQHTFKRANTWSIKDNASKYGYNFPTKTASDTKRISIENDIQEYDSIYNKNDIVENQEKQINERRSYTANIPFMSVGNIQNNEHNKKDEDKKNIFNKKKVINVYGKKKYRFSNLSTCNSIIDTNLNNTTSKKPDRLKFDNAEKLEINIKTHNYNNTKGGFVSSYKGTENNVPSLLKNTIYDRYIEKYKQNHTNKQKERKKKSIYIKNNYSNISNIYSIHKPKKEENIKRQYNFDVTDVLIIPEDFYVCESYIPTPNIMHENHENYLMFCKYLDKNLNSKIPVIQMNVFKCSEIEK
UniProt A0A509AQF6: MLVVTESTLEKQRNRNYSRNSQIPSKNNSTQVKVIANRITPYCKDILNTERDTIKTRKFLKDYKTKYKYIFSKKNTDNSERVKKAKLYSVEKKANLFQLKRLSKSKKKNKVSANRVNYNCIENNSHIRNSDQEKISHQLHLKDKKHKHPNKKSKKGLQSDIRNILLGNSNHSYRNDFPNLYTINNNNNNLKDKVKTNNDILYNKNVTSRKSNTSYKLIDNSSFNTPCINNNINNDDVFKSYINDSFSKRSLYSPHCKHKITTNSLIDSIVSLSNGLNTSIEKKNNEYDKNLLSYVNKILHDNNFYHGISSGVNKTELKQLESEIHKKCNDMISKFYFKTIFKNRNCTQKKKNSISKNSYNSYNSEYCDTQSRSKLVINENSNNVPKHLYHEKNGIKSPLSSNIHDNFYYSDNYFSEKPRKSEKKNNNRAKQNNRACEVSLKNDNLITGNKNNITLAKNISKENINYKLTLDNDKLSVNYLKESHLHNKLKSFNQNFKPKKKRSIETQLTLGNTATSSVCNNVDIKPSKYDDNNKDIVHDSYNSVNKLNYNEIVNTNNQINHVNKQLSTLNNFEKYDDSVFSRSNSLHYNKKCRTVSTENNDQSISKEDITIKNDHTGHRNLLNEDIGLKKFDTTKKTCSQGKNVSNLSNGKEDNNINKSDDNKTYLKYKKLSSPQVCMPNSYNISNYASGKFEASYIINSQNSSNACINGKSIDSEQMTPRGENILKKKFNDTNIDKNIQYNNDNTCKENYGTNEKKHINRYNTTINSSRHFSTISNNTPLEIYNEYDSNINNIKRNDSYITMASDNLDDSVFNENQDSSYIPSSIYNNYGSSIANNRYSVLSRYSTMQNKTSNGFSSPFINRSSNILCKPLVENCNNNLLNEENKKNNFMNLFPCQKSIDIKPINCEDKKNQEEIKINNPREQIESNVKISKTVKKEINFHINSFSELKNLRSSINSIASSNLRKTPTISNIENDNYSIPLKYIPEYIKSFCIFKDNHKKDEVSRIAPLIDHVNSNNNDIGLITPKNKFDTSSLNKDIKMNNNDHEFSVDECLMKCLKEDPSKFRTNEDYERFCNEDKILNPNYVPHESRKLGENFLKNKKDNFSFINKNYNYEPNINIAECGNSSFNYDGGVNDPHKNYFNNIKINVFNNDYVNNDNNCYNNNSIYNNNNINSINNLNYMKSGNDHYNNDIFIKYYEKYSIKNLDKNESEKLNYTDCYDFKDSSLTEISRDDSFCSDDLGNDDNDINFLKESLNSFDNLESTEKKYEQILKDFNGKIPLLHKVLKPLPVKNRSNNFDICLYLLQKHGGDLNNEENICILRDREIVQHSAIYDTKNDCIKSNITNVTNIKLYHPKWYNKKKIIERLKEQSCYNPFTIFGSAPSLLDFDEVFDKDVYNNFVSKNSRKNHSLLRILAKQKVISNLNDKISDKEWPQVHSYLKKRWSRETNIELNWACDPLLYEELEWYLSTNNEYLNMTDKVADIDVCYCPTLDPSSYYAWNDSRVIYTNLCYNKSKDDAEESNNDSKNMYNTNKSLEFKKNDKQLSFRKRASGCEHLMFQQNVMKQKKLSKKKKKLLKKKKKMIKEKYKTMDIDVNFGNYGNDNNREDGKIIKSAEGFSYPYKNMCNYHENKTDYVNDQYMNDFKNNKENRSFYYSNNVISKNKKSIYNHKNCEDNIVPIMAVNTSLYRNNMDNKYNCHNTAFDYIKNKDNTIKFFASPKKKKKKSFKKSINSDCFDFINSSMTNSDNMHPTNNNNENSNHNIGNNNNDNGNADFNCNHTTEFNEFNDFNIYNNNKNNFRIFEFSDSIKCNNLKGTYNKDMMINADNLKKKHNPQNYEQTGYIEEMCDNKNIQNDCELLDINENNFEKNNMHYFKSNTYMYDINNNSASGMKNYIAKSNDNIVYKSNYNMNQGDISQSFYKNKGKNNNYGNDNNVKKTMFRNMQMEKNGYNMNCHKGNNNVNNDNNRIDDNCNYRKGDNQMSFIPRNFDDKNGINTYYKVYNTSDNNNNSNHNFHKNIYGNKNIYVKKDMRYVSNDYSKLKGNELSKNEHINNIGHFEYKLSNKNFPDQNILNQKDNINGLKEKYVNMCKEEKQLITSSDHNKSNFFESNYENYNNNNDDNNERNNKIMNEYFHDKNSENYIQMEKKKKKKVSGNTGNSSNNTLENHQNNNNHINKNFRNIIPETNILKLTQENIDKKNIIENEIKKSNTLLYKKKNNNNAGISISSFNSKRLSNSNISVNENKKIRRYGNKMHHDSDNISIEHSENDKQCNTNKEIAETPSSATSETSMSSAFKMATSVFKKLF

Target: End-binding protein EB1, C-terminal GFP-tagged (EB1-GFP) (P. berghei)
Test: affinity purification with mass spectrometry; GFP-Trap_A beads (Chromotek) on lysates of EB1-GFP gametocytes 1 min post activation, crosslinked with 1% formaldehyde for 10 min; 2 h at 4 °C; on-bead trypsin digest, LC-MS/MS; WT-GFP (GFP alone) gametocytes as control

| binding | Substance |
| --- | --- |
| binds | STU2 (from UniProt A0A509AS96) |
| binds | myosin K (from UniProt A0A509AJF0) |
| binds | CPC subunit INCENP2 (from UniProt A0A509AQF6) |
